Test results published in the supplement of paper PMC3334620.
Over roughly 33,000 sequences, “E-score (-0.5 to 0.5)” has its median near -0.0034; the highest 2% begin near 0.25. This is one part of the list.

The sequences below were run against T1, Yap3 (UniProt P38749) (assay: PBM E-score (8-mer binding enrichment) (E-score (-0.5 to 0.5)); higher = stronger / more preferred TF binding). Settings: protein concentration: 100 nM; construct: GST-full length.
T1 sequence: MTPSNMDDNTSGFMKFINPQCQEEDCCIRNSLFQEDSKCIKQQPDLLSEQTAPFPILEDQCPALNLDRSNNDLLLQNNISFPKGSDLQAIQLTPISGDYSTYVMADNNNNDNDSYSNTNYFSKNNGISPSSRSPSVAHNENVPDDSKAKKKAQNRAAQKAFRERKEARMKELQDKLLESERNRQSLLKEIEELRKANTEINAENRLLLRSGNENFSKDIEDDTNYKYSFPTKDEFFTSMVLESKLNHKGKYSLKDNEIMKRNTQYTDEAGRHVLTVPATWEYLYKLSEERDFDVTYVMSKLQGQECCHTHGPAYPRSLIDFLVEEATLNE
Outline: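 For each ungapped eight-base word taken together with its reverse complement, the Universal PBM Analysis Suite assigned an E-score. Binding data came from GST-tagged yeast transcription factors, applied at about 100-200 nM, on universal all-10-mer Agilent arrays made double-stranded by primer extension. Fluorescent anti-GST marked bound protein, and scans were normalised with masliner.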

Sequence | PBM E-score
GGACGATA | 0.0144
CGTCGCGC | 0.0641
ATACGAGG | -0.0166
AGCCGCGA | -0.123
GATGCAAC | -0.1
CGTTCAAC | 0.061
CTTGCTGC | -0.0855
ACACGAAG | 0.178
AGGAAAGG | -0.262
CTAGATCA | 0.023
ACCGTGAG | -0.168
TTAAGGAA | 0.0474
ACGTTATG | 0.219
GCTTATTA | 0.232
CATGGCTA | 0.0103
TCGCCTAA | -0.0472
CCTAACAG | 0.0154
CGCAGTAC | -0.0611
GACGGGCA | -0.12
AACTCGAA | 0.0615
AGCTCATC | -0.162
CACTTGGG | -0.102
ACCCGGGT | -0.12
TAACGGAA | 0.276
CCCGAACG | -0.207

Rewritten with tabs: entries from further up
Sequence	PBM E-score
ACCGTGAG	-0.168
TTAAGGAA	0.0474
ACGTTATG	0.219

The list continues:

Sequence | PBM E-score
CAAAATGG | 0.0299
AGCGCTTC | 0.121
ATGGCAAG | 0.0932
AGTATCAG | 0.0631
AAGAGCAT | 0.0619
ACATGGTG | 0.125
ACGGGACC | -0.236
CTCGAGGA | 0.0636
AACCCATG | 0.0214
CTTTGAGA | 0.0765
ATTCCGCA | -0.0554
AAATGTTC | 0.00069
CTAAAAGC | -0.0167
CCCCCTTC | -0.392
CGTTACGC | 0.0231
CAACATTC | -0.136
TGCCACAA | 0.12
ATCACATG | 0.0675
ACAACGGA | 0.219
AGCTGCCC | 0.0142
AGCGTAGA | -0.136
AATCAGGA | 0.0679
ATAAGTGA | 0.217
GCCAATAC | -0.00302
GACCCGCC | -0.0838

Taken from above:
CAAAATGG – PBM E-score: 0.0299
GCCAATAC – PBM E-score: -0.00302
AGTATCAG – PBM E-score: 0.0631
ATTCCGCA – PBM E-score: -0.0554
TGCCACAA – PBM E-score: 0.12
ACAACGGA – PBM E-score: 0.219

Carrying on:

Sequence | PBM E-score
CTACATAG | 0.102
CTGATCCC | -0.125
ACCACGAC | 0.00765
GCTTGCGA | 0.0537
ATTCATTG | 0.119
CCCCTCGG | -0.319
AAGCTCAC | -0.114
AGATGGCT | 0.021
AAATTCTG | 0.238
GGCACGAC | -0.118
AAGATTGG | 0.166
CACAGCTC | -0.0394
AGAGACTA | -0.0471
CAACTTCC | 0.0121
ACCTAGTG | 0.0364
TCTTGCCA | -0.0338
TCAGGGAA | -0.00645
AGTTTGCA | -0.0725
GCGCCATA | -0.0743
AAATGCAG | 0.0779
CCGATCCC | -0.215
CGTCGTAA | 0.158
AATGGGTC | -0.143
CACAGATC | -0.0115
ACCATAAT | 0.264

Sequence | PBM E-score
CCCAGGCG | -0.257
CTCTTCTC | -0.164
ACTTGCTC | 0.0278
CATTCACA | 0.163
CATGTTTA | 0.062
CCGGCAAA | -0.0508
ACACCATC | 0.0118
AGCACAAT | 0.075
GTAATAAA | 0.266
GTCAGTTA | 0.113
CATGTGGG | 0.0506
AACGGTTC | -0.139
CACAGTGA | 0.107
ACCTGTTC | 0.0586
AAAGACAA | 0.261
ACCGACGT | -0.0126
GCACGTTA | 0.0328
ATCTACTG | 0.165
GTTGTTGA | 0.216
CGCTTTAG | 0.0403
GATTTGTA | 0.22
TAGAAATA | 0.187
TGGTCGAA | -0.253
AGTGAACA | 0.0855
AGAATGCC | -0.00977

Sequence | PBM E-score
ACGGCCGA | 0.105
CAGCGTCG | -0.112
CCAGAGCC | -0.0868
CGCTTCTC | 0.0685
GACTAATA | 0.326
ATGTAAGG | 0.129
ACGGATAG | 0.176
GGAACTGA | -0.29
CAAACCCG | -0.13
AGTTAGCC | -0.00915
ACCTGTCC | -0.0992
CTGGCCAC | -0.00813
GATCTATA | -0.0784
CCATATGC | 0.00556
CGCTGGCA | -0.0684
CAGCATCG | -0.185
AGGGATTC | -0.0816
CCTATTAG | -0.00489
CCCCATAA | 0.00096
GAAATGAC | 0.259
AATATGCG | 0.0969
AATTTTGC | 0.0763
AAGCCCTG | -0.264
CCCATTCG | -0.0108
GCCGGAGC | -0.281

Sequence | PBM E-score
CCACTATA | 0.132
GTTTCCGA | 0.105
GCAGGACC | -0.163
CTTCTCGA | 0.0974
CTAAACGA | -0.0241
AACGCCGG | -0.126
AAGTGTGT | 0.0034
GGAAAGGA | -0.152
GACCTAAC | 0.0581
CGAGGACA | 0.0269
AGTCTGAT | -0.113
GAGACACC | -0.196
GGCTTCAC | -0.172
GCCGATGA | -0.102
ATGCCCAA | -0.00275
ACGCGATC | 0.185
CATATAGA | 0.0587
ATCTGGTG | 0.0119
AGCTGCTG | -0.158
ATGTTGTA | 0.231
ACTGAAAC | 0.27
CTTTCCCC | 0.0661
ACACAAAA | 0.165
CCGTCAGA | -0.265
CCGCCGGC | -0.16

Sequence | PBM E-score
GCGTAGAA | -0.00954
CACGACCC | -0.115
CGTCTATA | 0.104
ACAGTAGT | 0.0709
AACCTAGT | -0.0172
ATTTTTAC | 0.0674
ACTGTGTG | 0.0391
CCCCAGGA | -0.28
GCTGATAC | 0.0278
CCGTCGAC | -0.174
AATGACCG | 0.0168
CTCGCGCA | 0.03
ACACGCCT | -0.0337
AATGCGCG | 0.178
GTGGTAGA | -0.143
ATCTGCTA | -0.105
ATACCCAA | 0.185
GTCCCCAA | -0.196
GCAGGTAA | 0.17
AATGGCAC | 0.0457
ACGTTGAC | -0.0255
CAAGGCGG | -0.219
